Earlier results on 1 molecule are cited in patent publication US8992977B2, “Multi-day delivery of biologically active substances” (Samos Pharmaceuticals, LLC, priority 2007, dated 2015).

For the data set the following is noted: The Pharmacological Basis of Therapeutics 10th ed.; Physicians Desk Reference 58th Ed.; cited from earlier work.

With `COc1cc2c(cc1OC)C(=O)C(CC1CCN(Cc3ccccc3)CC1)C2` (stereo not shown) [Donepezil], the half life was 60 h.
